In PubChem BioAssay AID1347076 (National Center for Advancing Translational Sciences (NCATS), 2019):
The whole screen tested about 400,000 compounds, of which about 13,000 (3.2%) were called active. This list was built around the results that the source calls inconclusive (neither active nor inactive); the mix of calls is not that of the screen. Calls come from the whole dose curve; as a rule, active = well fitted cell-killing curve with a large enough effect; inconclusive = small, poorly fitted or top-dose-only effect, or effect the other way; inactive = flat fitted curve, though single readings scatter. Where the call is inconclusive, the potency comes from a doubtful curve fit.
% is set by controls: 0 for no effect and ±100 for the full control effect; potency is the fitted concentration of half-maximal effect.

Experiment: qHTS assay for MDR1-selective chemotherapeutics: Primary screen using the drug-selected MDR subline cells KB-V1; note: nearly all actives have a fitted effect of over 60% in size
Details: KB-V1 MDR cells viability, CellTiter-Glo, 72 h; activity change, negative = cytotoxicity: at 46.1 µM (top of the series)
How it was run: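 Cytotoxicity toward P-gp-expressing KB-V1 cells was determined as loss of CellTiter-Glo luminescence after 72 h at 37 degrees C. Compounds were tested in quantitative HTS format across a concentration range, with curves fitted to normalized data.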
For `COc1cccc(CNc2ccc([N+](=O)[O-])cc2Cl)c1O`, the Potency was inconclusive: 20.6 µM [cytotoxic, single point].
With `CCCCN(C(=O)c1cccc(N2C(=O)c3ccccc3C2=O)c1)c1c(N)n(CC(C)C)c(=O)[nH]c1=O` the Potency was inconclusive: 20.6 µM [rising, single point].
For `Cc1nn(CC(=O)OCC(=O)c2ccccc2)c(C)c1[N+](=O)[O-]`, the activity change, negative = cytotoxicity was inconclusive: 44.4%.
In the case of `CCCCOC(=O)Nc1ccc(C(C)C)cc1`, the Potency is reported as “inactive”.
With `Cc1ccc(Oc2ccccc2/C=C2\SC(=O)N(C)C2=O)cc1` the Potency was active: 16.4 µM.
In the case of `CCCCn1c(SCC(=O)c2ccccc2)nc2ccsc2c1=O`, the Potency is reported as inconclusive: 9.2 µM [cytotoxic, partial curve, poor fit].
For `Cc1ccc(S(=O)(=O)N(CC(O)Cn2c3ccccc3c3ccccc32)c2cccc(C(=O)N(C)C)c2)cc1` (stereo not given), the Potency was inconclusive: 10.3 µM [cytotoxic, partial curve].
In the case of `CCC(CC)c1nnc(NC(=O)c2ccc(S(=O)(=O)N3CCc4ccccc4C3)cc2)s1`, the activity change, negative = cytotoxicity is reported as inconclusive: -74.7%.
In the case of `CC(C)Oc1ccc(CN=C(N)N=C(N)N)cc1Cl`, the Potency is reported as “inactive”.
In the case of `CCOC(=O)N1CCN(C(=O)C2CCCN(c3ncnc4c3sc3cccc(F)c34)C2)CC1` (stereo not given), the Potency is reported as inconclusive: 29.1 µM [cytotoxic, partial curve, poor fit].
In the case of `OC(CN1CCN(Cc2ccccc2)CC1)Cn1c2ccccc2c2ccccc21` (stereo not given), the Potency is reported as active: 23.1 µM.
In the case of `C[C@@H]1CN([C@H](C)CO)S(=O)(=O)c2ccc(C#Cc3ccccc3)cc2O[C@@H]1CN(C)C(=O)CN(C)C`, the Potency is reported as inconclusive: 0.651 µM [rising, full curve, poor fit].
In the case of `Cc1ccc(-c2c(C#N)c(N)n(-c3ccc(C)cc3)c(=O)c2C#N)cc1`, the Potency is reported as inconclusive: 32.6 µM [rising, single point].
With `O=C(C1CCC(Cn2c(=S)[nH]c3ccccc3c2=O)CC1)N1CCOCC1` (stereo not given) the Potency was active: 23.1 µM.
In the case of `COc1ccc(NC(=O)C2CCCN2S(=O)(=O)c2cccc3nsnc23)c(OC)c1` (stereo not given), the Potency is reported as inconclusive: 32.6 µM [cytotoxic, single point].
For `CNCc1ccccc1Sc1ccc(O)c(O)c1`, the Potency was active: 23.1 µM.
For `O=C(Cn1cnc2c(OCc3ccccc3)ncnc21)NCc1ccccc1`, the Potency was “inactive”.
With `CCN1CCN(C(=O)c2nn(-c3ccccc3)c(=O)c3ccccc23)CC1` the Potency was inconclusive: 7.31 µM [cytotoxic, partial curve].
With `COCCNC(=O)/C(C#N)=C/c1c(F)cccc1Cl` the Potency was “inactive”.
With `CCN(C(=O)C1CCC(CNS(=O)(=O)c2cccc3nsnc23)CC1)c1cccc(C)c1` (stereo not given) the Potency was inconclusive: 2.31 µM [cytotoxic, full curve].
With `CC1(C)CC(=O)c2cc(C(=O)Nc3ccc(Br)cc3)c(=O)[nH]c2C1` the Potency was “inactive”.
For `CCN(C(=O)C1CCC(CNS(=O)(=O)c2cccc3nsnc23)CC1)c1ccccc1` (stereo not given), the Potency was inconclusive: 5.17 µM [cytotoxic, partial curve].
With `c1ccc(CCn2nnnc2C(c2cccs2)N2CCN(Cc3ccc4c(c3)OCO4)CC2)cc1` (stereo not given) the Potency was “inactive”.
For `Cc1ccc(S(=O)(=O)N(C(=O)c2ccncc2)c2ccc3oc4c(c3c2)CCCC4)cc1[N+](=O)[O-]`, the Potency was inconclusive: 16.4 µM [cytotoxic, single point].
For `COc1ccc(NC(=O)C2=C(C)Nc3ncnn3C2c2ccc(C)o2)cc1` (stereo not given), the Potency was inconclusive: 29.1 µM [rising, single point].
In the case of `O=C(Nc1ccc2oc(-c3cccc(F)c3)nc2c1)c1ccccc1F`, the Potency is reported as inconclusive: 4.11 µM [cytotoxic, full curve].
In the case of `O=C(NCc1cccnc1)c1ccc(Cl)c(S(=O)(=O)N2CCCCCC2)c1`, the Potency is reported as inconclusive: 13 µM [cytotoxic, partial curve].
In the case of `Cc1ccc(Oc2nc3c(c(=O)n(Cc4ccccc4)c(=O)n3C)n2C)cc1C`, the Potency is reported as inconclusive: 5.8 µM [cytotoxic, full curve].
For `CCCn1c(=N)c(C(=O)NCc2cccnc2)cc2c(=O)n3cccc(C)c3nc21`, the Potency was inconclusive: 8.2 µM [rising, partial curve].
In the case of `Cc1ccc(S(=O)(=O)N2CCCC2C(=O)Nn2cnnc2)cc1` (stereo not given), the Potency is reported as inconclusive: 4.11 µM [rising, full curve, poor fit].
In the case of `CCOC(=O)C1(CCCc2ccccc2)CCN(C(=O)CN2C(=O)CSC2=O)CC1`, the Potency is reported as inconclusive: 29.1 µM [rising, single point].
For `CC1(C)COC(c2ccc(F)c([N+](=O)[O-])c2)=N1`, the Potency was inconclusive: 25.9 µM [cytotoxic, partial curve, poor fit].
With `COc1cccc(/C=C(\C#N)c2nc3ccccc3[nH]2)c1OCC(=O)O` the Potency was inconclusive: 1.16 µM [rising, single point].
In the case of `COc1ccc(N(Cc2ccccc2)S(=O)(=O)c2cccc(C(=O)Nc3ccccn3)c2)cc1`, the Potency is reported as active: 3.66 µM.
With `O=C(NC1CCCC1)c1ccc(CSc2nc3cccnc3n2Cc2ccccc2F)cc1` the Potency was “inactive”.
With `COc1ccccc1NC(=O)c1sc(NC(=O)c2ccco2)c(C#N)c1C` the Potency was “inactive”.
With `Clc1ccc(Cn2ncc3c(NCc4ccccc4)ncnc32)cc1` the Potency was active: 6.51 µM.
With `Cc1cc(C)cc(NCC(=O)Nc2c(C)cccc2C)c1` the Potency was inconclusive: 11.6 µM [cytotoxic, partial curve].
For `Cc1cc2nc(-c3ccco3)c(CC(C)(C)C)n2c(C)c1Br`, the Potency was inconclusive: 3.66 µM [cytotoxic, full curve, poor fit].
In the case of `Nc1nc(C(F)(F)F)cc(=O)[nH]1`, the Potency is reported as inconclusive: 20.6 µM [rising, partial curve, poor fit].
For `CCc1ccc2[nH]c(=O)c(C(c3nnnn3CC3CCCO3)N3CCCc4ccccc43)cc2c1` (stereo not given), the Potency was inconclusive: 23.1 µM [cytotoxic, single point].
With `O=C(NC(=S)Nc1ccc(S(=O)(=O)N2CCCC2)cc1)c1cccs1` the Potency was active: 10.3 µM.
For `CC(C)Oc1ccc(Br)cc1C(=O)N/N=C/c1c[nH]c2ccccc12`, the Potency was inconclusive: 16.4 µM [cytotoxic, partial curve].
For `CCN(c1ccccc1)S(=O)(=O)c1cc(C(=O)Nc2cccc(Cl)c2)ccc1F`, the Potency was active: 20.6 µM.
For `CCc1c(N)nc(N)nc1Nc1ccccc1C`, the Potency was “inactive”.
For `CCOC(=O)c1cc(NC(=O)Nc2nccs2)c(C)nc1C`, the Potency was inconclusive: 20.6 µM [cytotoxic, single point].
With `NC(c1ccc(F)c(F)c1)c1nc(-c2cncnc2)cs1` (stereo not given) the Potency was “inactive”.
In the case of `Cc1cc(C)c(NS(=O)(=O)c2ccc3c(c2)NC(=O)CCS3)c(C)c1`, the Potency is reported as inconclusive: 16.4 µM [cytotoxic, single point].
For `Cc1csc(NC(=O)c2c(-c3c(F)cccc3Cl)noc2C)n1`, the Potency was inconclusive: 32.6 µM [cytotoxic, single point].
For `CN1C(=O)N(C)C2(c3ccccc3)NC(=O)NC12c1ccccc1` (stereo not given), the Potency was “inactive”.
With `COC(=O)C1CN(C(=O)C(C)Oc2cccc(C)c2C)c2ccccc2O1` (stereo not given) the Potency was inconclusive: 32.6 µM [rising, single point].
For `C=C(C)CN(CC)C(=O)Cn1cnc2c(oc3ccccc32)c1=O`, the Potency was inconclusive: 25.9 µM [cytotoxic, partial curve, poor fit].
For `COc1ccc(CCNC(=O)COc2ccc(N(C)S(=O)(=O)c3ccc(Cl)cc3)cc2)cc1`, the Potency was inconclusive: 7.31 µM [cytotoxic, partial curve].
For `COc1ccc(C2=CC(=O)C[C@H](COCc3ccccc3)N(C(=O)OC(C)(C)C)O2)cc1`, the Potency was “inactive”.
For `O=C(COc1ccc2ccc(=O)oc2c1)N1CCc2ccccc21`, the Potency was “inactive”.
In the case of `CC1CCN(c2ccc(C(=O)NCc3ccc4c(c3)OCO4)cc2[N+](=O)[O-])CC1`, the Potency is reported as inconclusive: 8.2 µM [cytotoxic, partial curve, poor fit].
In the case of `CCOc1ccc(C(C)=O)cc1CSc1nnc(-c2cccs2)n1CC1CCCO1` (stereo not given), the Potency is reported as “inactive”.
With `O=c1c2ccccc2oc2cc(-c3ccc(CN4CCOCC4)cc3)ccc12` the Potency was inconclusive: 29.1 µM [cytotoxic, single point].
For `Cc1ccc2c(CSc3nc4ccccc4c(=O)n3CCCO)cc(=O)oc2c1C`, the Potency was “inactive”.
With `COc1ccc(NC(=O)CN(C)C(=O)/C=C/c2ccc(OCc3ccccc3)cc2)cc1` the Potency was inconclusive: 20.6 µM [cytotoxic, single point].
In the case of `C=C1C(=O)OC2C=C(CO)CCC=C(CO)CC(OC(=O)C(C)C)C12` (stereo not given), the Potency is reported as “inactive”.
In the case of `Cc1cc(NC(=O)c2ccc(Br)o2)ccc1NC(=O)c1ccco1`, the Potency is reported as active: 10.3 µM.
With `BrC(=C\c1ccccc1)/C=N/n1cnnc1` the Potency was inconclusive: 16.4 µM [cytotoxic, single point].
In the case of `Cc1cc(C)c(S(=O)(=O)N2CCCOC2CNC(=O)C(=O)NCc2ccncc2)c(C)c1` (stereo not given), the Potency is reported as inconclusive: 14.6 µM [cytotoxic, partial curve].
For `Cc1ccnc2c1ccc1cccnc12`, the Potency was inconclusive: 29.1 µM [cytotoxic, single point].
For `CC(=O)N1CCN(C(=O)CSc2ncnc3sc(C)c(C)c23)CC1`, the Potency was active: 14.6 µM.
In the case of `CSc1nc(C(C)C)ccc1CNC(=O)CC(C)c1ccccc1` (stereo not given), the Potency is reported as inconclusive: 5.8 µM [cytotoxic, full curve].
For `CCCCN(CCCNC(=O)c1c(C)cc(=O)oc1C)c1ccccc1`, the Potency was inconclusive: 10.3 µM [cytotoxic, partial curve].
For `COCCN(C(=O)CSc1ncn[nH]1)c1c(N)n(Cc2ccccc2)c(=O)[nH]c1=O`, the Potency was inconclusive: 29.1 µM [rising, single point].
For `CCOC1=C2[C@H](c3ccccc3)N(S(=O)(=O)c3ccc(C)cc3)C[C@H]2n2c(=O)n(-c3ccccc3)c(=O)n2C1`, the Potency was “inactive”.
